Measurements reported in PubChem BioAssay (NCATS).
The inconclusive results got no clear call from the source; some entries with a clear call stand among them for comparison. For some assays here: Potencies of inconclusive entries are doubtful fits and often do not repeat. Calls of active or inactive are those of the source. The call rests on the fitted dose curve; in most records, active means well fitted curve in the direction sought with a large enough effect; inconclusive means small, poorly fitted or top-dose-only effect, or another doubt; inactive means no such curve, though single readings can be large; an effect the other way counts as inactive or inconclusive.

How the values were obtained:
[1] = Quantitative High-Throughput drug screen in 47 multiple myeloma cell lines against the NCATS MIPE library collection: KMS20_JCRB cell viability assay (AID 1918973); conditions: CellTiter-Glo ATP, 48 h; viability (% of DMSO): at 45.8 µM (top of the series); further: nearly all actives have a fitted effect of over 45% in size
Method in brief: (§1)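 Relative luminescence from CellTiter-Glo served as the viability signal, referenced to DMSO-treated (100%) and cell-free medium (0%) controls. Treatment lasted 48 hours at 37C with 500 cells per well.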

[2] = Quantitative High-Throughput drug screen in 47 multiple myeloma cell lines against the NCATS MIPE library collection: KMS21BM_JCRB cell viability assay (AID 1918974); conditions: ATP luminescence, 48 h; viability: at 45.8 µM (top of the series) unless noted
Method in brief: as §1

[3] = Quantitative High-Throughput drug screen in 47 multiple myeloma cell lines against the NCATS MIPE library collection: KMS26_JCRB cell viability assay (AID 1918975); conditions: KMS26 myeloma cells viability, CellTiter-Glo ATP, 48 h; viability (% of DMSO): at 45.8 µM (top of the series); further: nearly all actives have a fitted effect of over 45% in size
Method in brief: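 Viability readout: CellTiter-Glo luminescence following 5 min room-temperature incubation with reagent. Prior exposure: 48 h, 37C, humidified 5% CO2, 500 cells per well.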

[4] = Quantitative High-Throughput drug screen in 47 multiple myeloma cell lines against the NCATS MIPE library collection: MOLP8_DSMZ cell viability assay (AID 1918977); conditions: MOLP8 myeloma viability, CellTiter-Glo ATP luminescence, 48 h; viability (% of control): at 45.8 µM (top of the series); further: nearly all actives have a fitted effect of over 45% in size
Method in brief: (§2)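 Viability after 48 h drug exposure was measured as ATP-dependent luminescence. Cells, 500 per well, sat at 37 °C under 5% CO2; DMSO wells set 100%, media-only wells 0%.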

[5] = Quantitative High-Throughput drug screen in 47 multiple myeloma cell lines against the NCATS MIPE library collection: NCIH929_DSMZ cell viability assay (AID 1918978); conditions: NCI-H929 myeloma viability, CellTiter-Glo ATP, 48 h; series mostly up to 45.8 µM; further: nearly all actives have a fitted effect of over 35% in size
Method in brief: as §2

[6] = Quantitative High-Throughput drug screen in 47 multiple myeloma cell lines against the NCATS MIPE library collection: MM1S_ATCC cell viability assay (AID 1918980); conditions: MM1S myeloma viability, CellTiter-Glo ATP luminescence, 48 h; viability (% of control): at 45.8 µM (top of the series); further: nearly all actives have a fitted effect of over 45% in size
Method in brief: as §2

[7] = Quantitative High-Throughput drug screen in 47 multiple myeloma cell lines against the NCATS MIPE library collection: MMM1_PLB cell viability assay (AID 1918976); further: nearly all actives have a fitted effect of over 35% in size
Method in brief: as §2

[8] = Quantitative High-Throughput drug screen in 47 multiple myeloma cell lines against the NCATS MIPE library collection: OCIMY1_PLB cell viability assay (AID 1918979); further: nearly all actives have a fitted effect of over 35% in size
Method in brief: as §2

[9] = Quantitative High-Throughput drug screen in 47 multiple myeloma cell lines against the NCATS MIPE library collection: KMS12PE_JCRB cell viability assay (AID 1918972); further: nearly all actives have a fitted effect of over 30% in size
Method in brief: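 qHTS of the MIPE 4.0 collection: 500 myeloma cells/well, 48 h drug exposure at 37C in 5% CO2, then CellTiter-Glo for 5 min at room temperature before luminescence reading.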
Potency means the concentration at half of the fitted maximal effect.

| SMILES | Potency [1] | Potency [2] | Potency [3] | Potency [4] | Potency [5] | Potency [6] | Potency [7] | Potency [8] | Potency [9] |
| --- | --- | --- | --- | --- | --- | --- | --- | --- | --- |
| Cc1cccc(Nc2nc(-c3ccncc3)cs2)c1 | inconclusive: 13.2 µM [cytotoxic, partial curve, poor fit] | inconclusive: 11.8 µM [cytotoxic, partial curve, poor fit] | inconclusive: 10.5 µM [cytotoxic, partial curve, poor fit] | inconclusive: 29.6 µM [cytotoxic, single point] | inconclusive: 29.6 µM [cytotoxic, single point] | inconclusive: 0.0418 µM [rising, full curve, poor fit] | – | – | – |
| O=C(Nc1cc2cc[nH]c2cn1)c1ccccc1 | active: 9.35 µM | inconclusive: 0.935 µM [cytotoxic, full curve, poor fit] | active: 11.8 µM | active: 3.72 µM | – | – | – | – | – |
| CCCCN(CCCC)CCC(O)c1cc2c(Cl)cc(Cl)cc2c2cc(C(F)(F)F)ccc12 (stereo not drawn) | inconclusive: 20.9 µM [cytotoxic, partial curve, poor fit] | inconclusive: 0.235 µM [rising, full curve, poor fit] | inactive | inconclusive: 37.2 µM [cytotoxic, single point] | inconclusive: 20.9 µM [cytotoxic, partial curve] | inactive | inconclusive: 33.2 µM [cytotoxic, single point] | – | – |
| O=C(N[C@@H](c1ccccc1)[C@@H]1CCCCN1)c1cccc(C(F)(F)F)c1Cl | inconclusive: 37.2 µM [cytotoxic, single point] | inconclusive: 0.132 µM [cytotoxic, full curve, poor fit] | inconclusive: 0.0332 µM [cytotoxic, full curve, poor fit] | inconclusive: 0.935 µM [cytotoxic, full curve, poor fit] | inconclusive: 20.9 µM [cytotoxic, partial curve, poor fit] | active: 20.9 µM | active: 1.32 µM | – | – |
| CC(C)(C)OC(=O)CN(Cc1ccc(Cl)cc1)Cc1ccc([N+](=O)[O-])s1 | inactive | inconclusive: 33.2 µM [rising, single point] | inconclusive: 8.33 µM [cytotoxic, partial curve, poor fit] | inconclusive: 20.9 µM [cytotoxic, partial curve] | inactive | inconclusive: 37.2 µM [cytotoxic, single point] | – | – | – |
| Cc1oncc1C(=O)Nc1ccc(C(F)(F)F)cc1 | inconclusive: 4.69 µM [cytotoxic, partial curve, poor fit] | inconclusive: 13.2 µM [rising, partial curve] | inactive | inconclusive: 10.5 µM [cytotoxic, partial curve, poor fit] | – | – | – | inactive | – |
| N=c1ccn2c(n1)O[C@H]1[C@@H](O)[C@@H](CO)O[C@H]12 | inconclusive: 14.8 µM [cytotoxic, partial curve, poor fit] | active: 2.96 µM | – | inconclusive: 3.72 µM [cytotoxic, partial curve, poor fit] | – | – | inconclusive: 0.0023 µM [rising, full curve, poor fit] | – | – |
| CS(=O)(=O)N(Cc1ccco1)CC(O)Cn1c2ccccc2c2ccccc21 (stereo not drawn) | inconclusive: 16.6 µM [cytotoxic, partial curve, poor fit] | inconclusive: 13.2 µM [rising, partial curve] | inconclusive: 0.0083 µM [rising, full curve, poor fit] | inconclusive: 14.8 µM [cytotoxic, partial curve] | inconclusive: 20.9 µM [cytotoxic, partial curve, poor fit] | inconclusive: 20.9 µM [cytotoxic, single point] | – | – | – |
| CN(C)c1ccc(Nc2nc(N)n(C(=O)c3c(F)cccc3F)n2)cc1 | inconclusive: 23.5 µM [cytotoxic, partial curve, poor fit] | active: 2.35 µM | inconclusive: 37.2 µM [cytotoxic, single point] | inconclusive: 23.5 µM [cytotoxic, partial curve, poor fit] | – | active: 14.8 µM | inconclusive: 37.2 µM [cytotoxic, single point] | – | – |
| C=C1C(=CC=C2CCC[C@]3(C)[C@@H]([C@H](C)CCCC(C)(C)O)CC[C@@H]23)C[C@@H](O)C[C@@H]1O | inconclusive: 7.43 µM [cytotoxic, full curve, poor fit] | inconclusive: 1.18 µM [cytotoxic, partial curve, poor fit] | – | – | – | – | active: 20.9 µM | – | – |
| CC(=O)N(C)C1(c2ccccc2)CCN(CCC[C@]2(c3ccc(Cl)c(Cl)c3)CCCN(C(=O)c3ccccc3)C2)CC1 | – | inconclusive: 14.8 µM [cytotoxic, partial curve, poor fit] | – | active: 23.5 µM | active: 11.8 µM | – | – | active: 26.4 µM | active: 7.43 µM |
| COc1cccc2c1CCCC2CCCN1CCN(C2CCCCC2)CC1 (stereo not drawn) | inconclusive: 16.6 µM [cytotoxic, partial curve, poor fit] | inconclusive: 37.2 µM [cytotoxic, partial curve, poor fit] | inconclusive: 10.5 µM [cytotoxic, partial curve, poor fit] | inconclusive: 18.7 µM [cytotoxic, partial curve, poor fit] | inconclusive: 33.2 µM [cytotoxic, single point] | – | active: 14.8 µM | – | – |
| NC(CO)C(=O)NNCc1ccc(O)c(O)c1O (stereo not drawn) | inconclusive: 5.26 µM [rising, partial curve, poor fit] | inconclusive: 9.35 µM [rising, full curve] | active: 33.2 µM | active: 10.5 µM | – | inconclusive: 33.2 µM [cytotoxic, single point] | – | active: 26.4 µM | – |
| Cc1ccc(C(=O)Nc2cccc(C(F)(F)F)c2)cc1Nc1nc(-c2cccnc2)nc2c1cnn2C | – | inactive | – | inconclusive: 18.7 µM [cytotoxic, partial curve] | – | – | – | active: 16.6 µM | inactive |
| Cc1cc(OCCCc2c(C(=O)O)n(Cc3cccnc3)c3c(-c4c(COc5ccc(N6CCN([S+](C)(=O)[O-])CC6)cc5)nn(C)c4C)cccc23)cc(C)c1Cl | inconclusive: 6.62 µM [cytotoxic, partial curve, poor fit] | inconclusive: 37.2 µM [rising, single point] | – | active: 20.9 µM | active: 3.32 µM | – | – | – | – |
| CO[C@H]1C=CC=C(C)C(=O)NC2=CC(=O)C(NCCN(C)C)=C(C[C@@H](C)C[C@H](OC)[C@@H](O)[C@@H](C)C=C(C)[C@@H]1OC(N)=O)C2=O | – | – | – | inconclusive: 0.0118 µM [cytotoxic, full curve] | – | active: 0.105 µM | active: 1.66 µM | active: 0.132 µM | – |
| COCCCN1CCC(NC(=O)c2cc(Cl)c(N)c3c2OCC3)CC1 | inconclusive: 14.8 µM [cytotoxic, partial curve, poor fit] | – | inconclusive: 29.6 µM [cytotoxic, single point] | inconclusive: 29.6 µM [cytotoxic, single point] | inconclusive: 33.2 µM [cytotoxic, single point] | inconclusive: 0.0332 µM [rising, full curve] | inconclusive: 33.2 µM [cytotoxic, single point] | – | – |
| CCC(=C(CC)c1ccc(O)cc1)c1ccc(O)cc1 | inactive | inconclusive: 20.9 µM [cytotoxic, partial curve, poor fit] | – | inconclusive: 11.8 µM [cytotoxic, partial curve] | – | active: 14.8 µM | inconclusive: 10.5 µM [cytotoxic, partial curve, poor fit] | inconclusive: 23.5 µM [cytotoxic, partial curve] | – |
| COc1cc2nc(-c3ccc(N4CCN(C)CC4)cc3)nc(NCCN3CCOCC3)c2cc1OC | active: 0.105 µM | inconclusive: 33.2 µM [rising, partial curve, poor fit] | – | – | – | – | – | active: 0.148 µM | – |
| CCCCc1oc2ccccc2c1C(=O)c1cc(I)c(OCCN(CC)CC)c(I)c1 | – | inconclusive: 5.9 µM [cytotoxic, full curve, poor fit] | – | – | – | active: 2.35 µM | active: 18.7 µM | – | – |
| CN(C(Cc1ccc(OS(=O)(=O)c2cccc3cnccc23)cc1)C(=O)N1CCN(c2ccccc2)CC1)S(=O)(=O)c1cccc2cnccc12 (stereo not drawn) | – | inconclusive: 0.372 µM [cytotoxic, full curve, poor fit] | – | inconclusive: 7.43 µM [cytotoxic, full curve] | – | – | – | – | – |
| COC(=O)Nc1nc2ccc(Sc3ccccc3)cc2[nH]1 | inconclusive: 0.833 µM [cytotoxic, full curve] | active: 0.59 µM | – | active: 13.2 µM | – | – | – | active: 3.32 µM | – |
| COc1ccc(C2CC(c3ccccc3)=NN2c2ccc(S(N)(=O)=O)cc2)cc1 (stereo not drawn) | inconclusive: 7.43 µM [cytotoxic, partial curve, poor fit] | – | inconclusive: 23.5 µM [cytotoxic, single point] | inconclusive: 16.6 µM [cytotoxic, partial curve, poor fit] | inconclusive: 26.4 µM [cytotoxic, single point] | – | inconclusive: 20.9 µM [cytotoxic, partial curve, poor fit] | inconclusive: 0.0012 µM [cytotoxic, full curve, poor fit] | – |

A different layout for part of the listing above.
SMILES | Potency [1] | Potency [2] | Potency [3] | Potency [4] | Potency [5] | Potency [6] | Potency [7] | Potency [8] | Potency [9]
Cc1cccc(Nc2nc(-c3ccncc3)cs2)c1 | inconclusive: 13.2 µM [cytotoxic, partial curve, poor fit] | inconclusive: 11.8 µM [cytotoxic, partial curve, poor fit] | inconclusive: 10.5 µM [cytotoxic, partial curve, poor fit] | inconclusive: 29.6 µM [cytotoxic, single point] | inconclusive: 29.6 µM [cytotoxic, single point] | inconclusive: 0.0418 µM [rising, full curve, poor fit] | – | – | –
CCCCc1oc2ccccc2c1C(=O)c1cc(I)c(OCCN(CC)CC)c(I)c1 | – | inconclusive: 5.9 µM [cytotoxic, full curve, poor fit] | – | – | – | active: 2.35 µM | active: 18.7 µM | – | –
